PubChem BioAssay AID504847 (National Center for Advancing Translational Sciences (NCATS), 2011)
Values joined by “and” are separate entries in the source; they are usually repeats but may differ in a detail not shown here. Equal values may be shown once. Among all 400,000 compounds or so, about 3,700 (0.93%) were called active. Inconclusive means that the source gave no clear call. Such entries were picked first, then a sample of the others. Calls follow the shape of the dose curve; as a rule, active = well fitted inhibition curve with a large enough effect; inconclusive = small, poorly fitted or top-dose-only effect, or another doubt; inactive = no such curve, though single readings can be large or run the other way. Where the call is inconclusive, the potency comes from a doubtful curve fit.

Amino acid sequences for entries named in this document (tags omitted). A change or cut given only in a name is not applied to a line headed by its entry.
UniProt P11473: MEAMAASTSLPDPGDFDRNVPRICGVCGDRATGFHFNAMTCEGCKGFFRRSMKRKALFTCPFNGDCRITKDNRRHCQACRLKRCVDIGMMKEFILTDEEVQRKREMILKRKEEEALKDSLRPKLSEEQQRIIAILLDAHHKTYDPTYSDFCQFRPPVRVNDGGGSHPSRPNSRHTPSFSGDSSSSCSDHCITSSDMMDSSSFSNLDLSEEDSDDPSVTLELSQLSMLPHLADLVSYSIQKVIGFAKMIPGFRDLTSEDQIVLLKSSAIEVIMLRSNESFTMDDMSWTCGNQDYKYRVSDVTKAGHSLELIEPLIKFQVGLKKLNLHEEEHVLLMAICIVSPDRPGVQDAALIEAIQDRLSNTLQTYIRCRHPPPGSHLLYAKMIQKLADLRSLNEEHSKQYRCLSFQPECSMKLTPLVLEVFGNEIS

Molecular target: Vitamin D3 receptor (Homo sapiens) (UniProt P11473)
Experiment: Inhibitors of the vitamin D receptor (VDR): qHTS
Conditions: VDR-SRC2-3 peptide fluorescence polarization, 2 h; max response, negative = inhibition: hits give low values
Procedure, shortened: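 Reagent solutions, kept cold and dark, are dispensed first; compounds are then pinned in at 23 nl, plates briefly spun, and incubated 2 h at ambient temperature. Inhibition of VDR–SRC2-3 peptide binding is read by fluorescence polarization.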
% is scaled to controls: 0 for no effect and ±100 for the full control effect; potency is read from the fitted curve at half-maximal effect.

Q: With `Cc1cccc(/C=C/C(=O)c2ccc([N+](=O)[O-])o2)c1` as the molecule, how does the Potency read?
A: active: 8.91 µM

Q: `Cc1nc(NCCc2ccccc2)c2oc3ccccc3c2n1` was tested. Which max response, negative = inhibition did it give?
A: inactive: -4.37%

Q: How did the max response, negative = inhibition turn out when `COc1ccc(C(=O)CC(=O)C(=O)Nc2cc(C)ccc2C)cc1` was run?
A: inactive: -9.22%

Q: For `CC(C)(C)C(=O)CN1C(=O)NC(c2ccccc2)(c2ccccc2)C1=O`, which max response, negative = inhibition is on record?
A: inactive: -1%

Q: Which Potency does the source give for `CCOC(=O)c1cnc(SCC(=O)c2ccccc2)nc1N` here?
A: inconclusive: 89.1 µM [inhibitor, single point]

Q: `CCOC(=O)C1=C(COC(=O)c2cc(OC)c(OC)cc2[N+](=O)[O-])NC(=O)NC1C` (centres undefined) was tested. Which Potency did it give?
A: inconclusive: 39.8 µM [inhibitor, partial curve]

Q: With `CCCCOc1ccc(/C=c2\sc3ncnn3c2=O)cc1` as the molecule, how does the Potency read?
A: inconclusive: 20 µM [inhibitor, partial curve, poor fit]

Q: For `O=C(CCl)Oc1ccc2occ(C(=O)c3cccs3)c2c1`, which Potency is on record?
A: inconclusive: 89.1 µM [inhibitor, single point]

Q: With `COc1ccc(-c2cc(=O)c3cc(OC)ccc3[nH]2)cc1` as the molecule, how does the Potency read?
A: inconclusive: 79.4 µM [inhibitor, partial curve, poor fit]

Q: Which Potency does the source give for `CC(=O)c1ccc(N2CCN(C(=O)C3CCCN(S(=O)(=O)c4c(C)[nH]c(=O)[nH]c4=O)C3)CC2)cc1` (centres undefined) here?
A: inconclusive: 39.8 µM [inhibitor, single point]

Q: Which max response, negative = inhibition does the source give for `O=C(Nc1cc(C(F)(F)F)ccc1N1CCOCC1)c1c(F)c(F)c(F)c(F)c1F` here?
A: inactive: 6.84%

Q: How did the Potency turn out when `O=C(N/N=C/C=C/c1ccco1)c1cnccn1` was run?
A: inconclusive: 89.1 µM [inhibitor, single point]

Q: How did the Potency turn out when `CN(CC(=O)Nc1ccc(N2CCOCC2)cc1)Cc1c(O)ccc2ccccc12` was run?
A: active: 28.2 µM

Q: How did the Potency turn out when `COc1ccc(OC)c(CCNC(=O)CN2C(=O)COc3ccc(S(=O)(=O)N4CCCCCC4)cc32)c1` was run?
A: inconclusive: 89.1 µM [inhibitor, single point]

Q: Which Potency does the source give for `O=C(O)/C=C/C(=O)NNc1ccc([N+](=O)[O-])cc1` here?
A: inconclusive: 50.1 µM [inhibitor, partial curve, poor fit]

Q: Which Potency does the source give for `COc1ccc(C(C#N)=C2C=CC(=NO)C(C)=C2Cl)cc1` here?
A: inconclusive: 89.1 µM [inhibitor, single point]

Q: For `Cc1scc(C(=O)NCc2ccco2)c1-c1ccccc1`, which Potency is on record?
A: inconclusive: 79.4 µM [inhibitor, partial curve, poor fit]

Q: With `Cc1nnnn1/C(=C\c1ccccc1)C(=O)OCC(=O)N1CC2(C)CC1CC(C)(C)C2` (centres undefined) as the molecule, how does the Potency read?
A: inconclusive: 56.2 µM [inhibitor, partial curve, poor fit]

Q: `O=C(Cc1ccc(Br)cc1)Nc1ccc(S(=O)(=O)NCC2CCCO2)cc1` (centres undefined) was tested. Which Potency did it give?
A: inconclusive: 25.1 µM [inhibitor, partial curve, poor fit]

Q: For `COc1cc(/C=C2\C(=O)ON=C2c2ccc(Cl)cc2)ccc1O`, which Potency is on record?
A: inconclusive: 56.2 µM [inhibitor, partial curve, poor fit]

Q: For `COc1ccc(OC)c(NC(=O)Cn2cc(C(=O)c3ccc(Cl)cc3)c(=O)c3cc(OC)ccc32)c1`, which max response, negative = inhibition is on record?
A: inactive: 2.44%

Q: How did the max response, negative = inhibition turn out when `COc1ccc(NC(=O)CN(C)C(=O)c2ccc(C)c(S(=O)(=O)N3CCCCC3)c2)cc1` was run?
A: inactive: 6.66%

Q: For `COc1ccc(-c2cc(C(=O)Oc3cccc(C)c3C)c3ccccc3n2)cc1`, which max response, negative = inhibition is on record?
A: inactive: -9.39%

Q: With `O=C(O)[C@H](Cc1ccccc1)NC(=O)N1CCN(c2ccc(F)cc2)CC1` as the molecule, how does the Potency read?
A: inconclusive: 100 µM [inhibitor, partial curve, poor fit]

Q: Which Potency does the source give for `O=C(NCc1ccc2c(c1)OCO2)c1c(-c2ccsc2)sc2ccccc12` here?
A: inconclusive: 100 µM [inhibitor, single point]

Q: How did the Potency turn out when `O=C1c2cccc(O)c2C(=O)c2c(O)cccc21` was run?
A: inconclusive: 39.8 µM [inhibitor, full curve] and inconclusive: 2.82 µM [inhibitor, full curve, poor fit]

Q: How did the Potency turn out when `O=S(=O)(c1cccc(-c2n[nH]c(=S)n2-c2ccccc2Cl)c1)N1CCOCC1` was run?
A: inconclusive: 70.8 µM [inhibitor, partial curve]

Q: For `CCOc1ccccc1N1CCN(C(=O)c2ccc3[nH]c4c(c3c2)CCCC4)CC1`, which Potency is on record?
A: inconclusive: 89.1 µM [inhibitor, partial curve, poor fit]

Q: For `CCCCCCC1CC(CCc2nc(=S)[nH][nH]2)C(=O)O1` (centres undefined), which Potency is on record?
A: inconclusive: 89.1 µM [inhibitor, single point]

Q: `Cc1cc(SCC(=O)c2ccccc2)nc(=O)[nH]1` was tested. Which Potency did it give?
A: inconclusive: 100 µM [inhibitor, single point]

Q: How did the Potency turn out when `COc1ccc(C(=O)NC(=S)NCc2ccccc2)cc1` was run?
A: inconclusive: 79.4 µM [inhibitor, single point]

Q: With `CC1=NN(c2ccccc2)C(=O)/C1=C\c1ccc(Oc2ccc([N+](=O)[O-])cc2[N+](=O)[O-])cc1` as the molecule, how does the Potency read?
A: inconclusive: 56.2 µM [inhibitor, partial curve, poor fit]

Q: For `COc1ccc(Nc2nc(-c3ccccc3F)nc3ccccc23)cc1OC`, which Potency is on record?
A: inconclusive: 89.1 µM [inhibitor, single point]

Q: `CCC(=O)N(Cc1ccco1)c1nc(C(=O)Nc2ccc(Cl)cc2)c(C)s1` was tested. Which Potency did it give?
A: inconclusive: 56.2 µM [inhibitor, partial curve, poor fit]

Q: With `Cc1cccc(CNC(=O)c2ccccc2N)c1` as the molecule, how does the Potency read?
A: inconclusive: 89.1 µM [inhibitor, partial curve, poor fit]

Q: `Nc1c(C(=O)CSc2n[nH]c(-c3ccccc3)n2)c(=O)[nH]c(=O)n1C1CC1` was tested. Which Potency did it give?
A: inconclusive: 100 µM [inhibitor, single point]

Q: How did the Potency turn out when `Cc1nc2ccccc2n1/C(=N\S(=O)(=O)c1ccccc1)c1ccccc1` was run?
A: inconclusive: 100 µM [inhibitor, single point]

Q: `O=C(Nc1cc(F)ccc1F)c1cnn2c(C(F)F)cc(-c3ccccc3)nc12` was tested. Which Potency did it give?
A: inconclusive: 44.7 µM [inhibitor, partial curve, poor fit]

Q: How did the Potency turn out when `CCCC[C@@H]1C=C(C(=O)O)[C@H](c2ccc(Cl)cc2)N1S(=O)(=O)c1ccc(C)cc1` was run?
A: inconclusive: 44.7 µM [inhibitor, partial curve, poor fit]
